Test results published in US11155523B2, “Biphenyl compound as CCR2/CCR5 receptor antagonist” (Medshine Discovery Inc., priority 2016, dated 2021).

The chains behind the UniProt entries cited, without tags or fusion partners.
UniProt P41597, whole entry: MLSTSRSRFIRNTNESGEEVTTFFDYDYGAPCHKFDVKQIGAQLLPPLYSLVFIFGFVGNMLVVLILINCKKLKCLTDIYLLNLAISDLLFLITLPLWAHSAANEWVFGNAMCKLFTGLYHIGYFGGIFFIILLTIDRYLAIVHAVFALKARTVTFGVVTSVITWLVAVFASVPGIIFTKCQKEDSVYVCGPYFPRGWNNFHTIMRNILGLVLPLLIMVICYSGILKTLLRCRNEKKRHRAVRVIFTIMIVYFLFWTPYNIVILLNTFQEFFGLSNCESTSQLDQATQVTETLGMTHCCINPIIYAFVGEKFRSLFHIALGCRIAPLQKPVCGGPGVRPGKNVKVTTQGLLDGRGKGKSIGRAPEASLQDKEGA
UniProt P51681, whole entry: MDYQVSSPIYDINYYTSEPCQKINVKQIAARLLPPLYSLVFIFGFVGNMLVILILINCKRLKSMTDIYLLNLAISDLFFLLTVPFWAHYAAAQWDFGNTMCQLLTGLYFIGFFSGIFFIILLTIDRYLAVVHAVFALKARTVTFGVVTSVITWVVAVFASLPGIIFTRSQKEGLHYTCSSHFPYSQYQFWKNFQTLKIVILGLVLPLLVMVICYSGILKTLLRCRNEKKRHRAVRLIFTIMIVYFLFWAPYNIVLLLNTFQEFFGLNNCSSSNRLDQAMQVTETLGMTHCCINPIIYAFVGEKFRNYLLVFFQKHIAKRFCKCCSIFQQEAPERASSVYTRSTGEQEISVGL

How the values were obtained:
[1] = target: CCR2 (Homo sapiens, UniProt P41597); assay: CCR2 in vitro test: intracellular calcium signal detected by FLIPR; conditions: read-out: IC50 detected by FLIPR, CCR2; HEK293 cells expressing CCR2, agonist MCP-1 at EC80, calcium signal
Method: (§1) Experimental Example 1: CCR2/CCR5 In Vitro Test
(§2) The intracellular calcium signal was detected by FLIPR, and the IC50 value of the compound was used as an index to evaluate the inhibitory effect of the compound on CCR2 and CCR5 receptors.
(§3) 1. Cell line: The cells were inoculated and incubated in a 5% CO2 incubator at 37° C. overnight.
(§4) CCR2/CCR5 density: 1 M (20 k/well)
(§5) 2. Reagents: Fluo-4 Direct, (Invitrogen, Cat #F10471)
(§6) The compound was dissolved in DMSO to prepare a 10 mM solution, and the compound solution was placed in a nitrogen box.
(§7) Agonist reference compounds:
(§8) Preparation of probenecid in FLIPR assay buffer: 1 mL of FLIPR assay buffer was added to […] of probenecid to prepare a 250 mM solution, which is prepared fresh daily. […]
(§9) (f) For DRC plate: • 1) Run the program on FLIPRTETRA. • 2) Read the fluorescent signal. • 3) Transfer 10 μL of compound from the DRC plate to the cell plate. • 4) Read the fluorescent signal. • 5) Calculate the “maximum−minimum” from Read 90 to the maximum allowed. […]
(§10) (g) For the composite plate (1-add): • 1) Run the program on FLIPRTETRA. • 2) Transfer 10 μl, of 5×EC80 concentration of the agonist reference compound from the composite plate to the cell plate. • 3) Read the fluorescent signal. • 4) Calculate the “maximum−minimum” from Read 90 to the maximum allowed. […]

[2] = target: CCR5 (Homo sapiens, UniProt P51681); assay: CCR5 in vitro test: intracellular calcium signal detected by FLIPR; conditions: read-out: IC50 detected by FLIPR, CCR5; HEK293 cells expressing CCR5, agonist RANTES at EC80, calcium signal
Method: as §1, §2, §3, §4, §5, §6, §7, §8, §9, §10

pIC50 [1]: 7.18
pIC50 [2]: 8.68
SMILES: CCCCOCCOc1ccc(-c2ccc(OC)c(/C=C/C(=O)Nc3ccc([S@@+]([O-])Cc4cnccc4CCC)cc3)c2)cc1

pIC50: −log10 of the molar value. The match of structure and compound is tentative.
